Assay results reported in patent US20170296524A1.
These are yes or no findings as the source states them, for the method shown. Binding seen in cells or lysates may run through a third protein. Some results given as binding are weak or reduced against the parent protein; the word gives no strength.

Chains of the proteins cited; added tags and fusions are not shown. Lines headed by an entry give the natural chain unless they say otherwise; changes in a name come on top. A line that says so, or that is headed by a name, gives the form on record, which may keep a tag or linker.
in vitro-translated, 35S-labeled CD147 (P35613, form named): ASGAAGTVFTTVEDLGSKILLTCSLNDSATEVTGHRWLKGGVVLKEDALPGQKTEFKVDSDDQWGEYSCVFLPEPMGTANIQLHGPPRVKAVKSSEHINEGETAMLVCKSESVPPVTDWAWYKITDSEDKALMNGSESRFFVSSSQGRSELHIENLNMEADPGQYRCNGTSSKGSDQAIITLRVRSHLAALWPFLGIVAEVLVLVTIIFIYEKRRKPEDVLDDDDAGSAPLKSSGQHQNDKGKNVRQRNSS
UniProt Q96SW2: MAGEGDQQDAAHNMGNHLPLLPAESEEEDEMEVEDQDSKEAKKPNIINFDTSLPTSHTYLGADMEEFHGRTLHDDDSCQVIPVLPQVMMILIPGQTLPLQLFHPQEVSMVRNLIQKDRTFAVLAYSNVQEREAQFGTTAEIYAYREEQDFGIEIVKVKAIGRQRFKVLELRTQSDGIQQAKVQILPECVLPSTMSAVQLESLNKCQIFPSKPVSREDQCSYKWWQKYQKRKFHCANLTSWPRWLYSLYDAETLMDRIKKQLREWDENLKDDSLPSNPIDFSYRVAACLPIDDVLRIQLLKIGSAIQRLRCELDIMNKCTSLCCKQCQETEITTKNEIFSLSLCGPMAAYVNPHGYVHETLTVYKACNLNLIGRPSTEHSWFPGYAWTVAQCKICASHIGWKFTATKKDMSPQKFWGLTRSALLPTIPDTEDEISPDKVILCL

Molecular target: in vitro-translated, 35S-labeled CD147 (human) (UniProt P35613)
Experiment: pull-down of recombinant GST-CRBN with in vitro-translated 35S-labeled protein, autoradiography (FIG. 16B)

binding: binds
Substance: recombinant GST-CRBN (purified GST-Cereblon) (from UniProt Q96SW2 1-442)
